Laboratory results as given in article PMC3053396.
These are yes or no findings as the source states them, for the method shown. For part of these data: Binding calls can cover weak binding; strength is not graded here. For part of these data: Where a sequence is shown, tags or fusion partners need not be part of it. Values belong to the binder of their own block, whether it stands above or below them.

Tests used:
[1] = biological target: Dmknδ5 (dermokine delta 5) in pGBKT7, two-hybrid bait (human); assay: two-hybrid; Matchmaker Gal4 system, yeast AH109; Dmknδ5 constructs in pGBKT7 as bait, Rab5 in pGAD10 or pGADT7; growth on medium lacking Trp, Leu, His and Ade, β-galactosidase filter assay
[2] = biological target: Dmknδ5-Ct in pGBKT7, two-hybrid fusion (human); assay: as above
[3] = biological target: Dmknδ5-Nt in pGBKT7, two-hybrid fusion (human); assay: as above
[4] = biological target: GST-Dmknδ5 fusion protein (human); assay: pull-down; GST-Dmknδ5 on glutathione sepharose beads; cleaved Rab5bwt preloaded with 500 µM GDP (inactive conformation); both purified
[5] = biological target: GST-Dmknδ5 fusion protein (human); assay: pull-down; GST-Dmknδ5 on glutathione sepharose beads; cleaved Rab5bwt preloaded with 500 µM GppNHp (active conformation); both purified
[6] = biological target: GST-Dmknδ5 fusion protein (human); assay: pull-down; GST-Dmknδ5 (30 µg) on glutathione sepharose beads, 10 µg recombinant Rab5b, 1 hour at 4°C; eluted with glutathione, immunoblot with anti-Rab5; both purified

binding [1]: binds
binding [2]: no binding
binding [3]: binds
B1: Rab5b, library clone in pGAD10 (protein, UniProt P61020 1-215)
chain: MTSRSTARPNGQPQASKICQFKLVLLGESAVGKSSLVLRFVKGQFHEYQESTIGAAFLTQSVCLDDTTVKFEIWDTAGQERYHSLAPMYYRGAQAAIVVYDITNQETFARAKTWVKELQRQASPSIVIALAGNKADLANKRMVEYEEAQAYADDNSLLFMETSAKTAMNVNDLFLAIAKKLPKSEPQNLGGAAGRSRGVDLHEQSQQNKSQCCSN

binding [4]: binds
binding [5]: binds
binding [6]: binds
B2: purified recombinant wild-type Rab5b, GST removed (protein, UniProt P61020 1-215)
chain: B1 chain
